In paper PMC6675128:
Results are given in words; binding and its absence hold for the method and conditions named. Binding seen in cells or lysates may run through a third protein. Some entries that bind do so weakly or less than the wild type. Sequences can lack the tags named with a protein.

Molecular target: T1, BCDIN3D tagged with a FLAG tag at its C-terminus (human) (UniProt Q7Z5W3)
T1 sequence: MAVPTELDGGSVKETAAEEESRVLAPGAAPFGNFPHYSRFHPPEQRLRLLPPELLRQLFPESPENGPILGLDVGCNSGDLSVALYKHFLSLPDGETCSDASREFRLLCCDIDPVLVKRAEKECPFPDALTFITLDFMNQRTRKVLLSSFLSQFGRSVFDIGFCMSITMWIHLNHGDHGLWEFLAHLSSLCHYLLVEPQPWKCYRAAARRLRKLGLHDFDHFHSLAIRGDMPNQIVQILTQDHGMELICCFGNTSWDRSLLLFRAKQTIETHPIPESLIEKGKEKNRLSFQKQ
Experiment: co-IP; FLAG eluates and inputs of Hela-S3-Flp-In Control and BCDIN3Df cells analysed by western blot with a TRMT5 antibody

B1: TRMT5 (enzyme, UniProt Q32P41 1-509)
chain: MVLWILWRPFGFSGRFLKLESHSITESKSLIPVAWTSLTQMLLEAPGIFLLGQRKRFSTMPETETHERETELFSPPSDVRGMTKLDRTAFKKTVNIPVLKVRKEIVSKLMRSLKRAALQRPGIRRVIEDPEDKESRLIMLDPYKIFTHDSFEKAELSVLEQLNVSPQISKYNLELTYEHFKSEEILRAVLPEGQDVTSGFSRIGHIAHLNLRDHQLPFKHLIGQVMIDKNPGITSAVNKINNIDNMYRNFQMEVLSGEQNMMTKVRENNYTYEFDFSKVYWNPRLSTEHSRITELLKPGDVLFDVFAGVGPFAIPVAKKNCTVFANDLNPESHKWLLYNCKLNKVDQKVKVFNLDGKDFLQGPVKEELMQLLGLSKERKPSVHVVMNLPAKAIEFLSAFKWLLDGQPCSSEFLPIVHCYSFSKDANPAEDVRQRAGAVLGISLEACSSVHLVRNVAPNKEMLCITFQIPASVLYKNQTRNPENHEDPPLKRQRTAEAFSDEKTQIVSNT
For B1, the binding was “binds”.
